Measured values taken from publication PMC12402451.
These are yes or no findings as the source states them, for the method shown.

Target: ThomasA^31-1167 (Thomasclavelia ramosa) (UniProt Q9AES2)
Test: SEC-SAXS; 50 uL of protein at 2 mg mL^-1 on a Superdex 200 Increase 3.2 column, 50 mM Tris-HCl pH 7.5, 100 mM NaCl, 2% v/v glycerol; molecular weight from the SAXS data; both purified

Q: “ThomasA^31-1167 (from UniProt Q9AES2 31-1167) (enzyme)” was tested. Which binding did it give?
A: The binding was “no binding (tested: 2 mg mL^-1 injected)”.
